Results on one molecule are retold here after paper PMC9490837, “Electronic Coupling in 1,2,3-Triazole Bridged Ferrocenes and Its Impact on Reactive Oxygen Species Generation and Deleterious Activity in Cancer Cells” (Inorganic Chemistry, 2022).

The term IC50 denotes the concentration that inhibits the measured activity by half.

One test relates to BEAS-2B cells. The experiment in a line: Crystal violet cell viability / antiproliferative assay, BEAS-2B. Type of test: cell-based. Conditions: nonmalignant human bronchial epithelium BEAS-2B cells, treatment time 72 h. As for the experimental part:
(§1) Human non-small-cell lung cancer cell lines A549 and H1975 and the human bronchial epithelial BEAS-2B cell line were purchased from ATCC (Manassas, VA). Cells were cultured in Roswell Park Memorial Institute (RPMI)-1640 media supplemented with 10% v/v fetal bovine serum, 100 U·mL^–1 penicillin, and 100 μg·mL^–1 streptomycin. Cells were grown in a humidified atmosphere at 37 °C and 5% CO2.
(§2) Crystal violet staining was used to assess cell viability. Cells were seeded in a 24-well plate and incubated with 20 μM concentration of compounds 1a, 1c, 2a, and 2c and tamoxifen, 5-fluorouracil, and cisplatin, with or without 50 μM NAC. After 72 h, the medium was discarded and cells were stained for 30 min with 5% w/v crystal violet solution in 66% v/v methanol, 200 μL per well. After staining, the crystal violet solution was removed, and the 24-well plate was washed with water to eliminate the excess solution. When dried, the plates were photographed. Quantitation of crystal violet staining was performed after solubilizing the dye in 10% acetic acid, 400 μL per well, and reading the absorbance of each well at 540 nm (HT Synergy 96-well microplate reader, Bio-Tek Instruments, Winooski, VT). The relative absorbance of untreated cells was considered as 100% viability; results were expressed as a percentage of viable cells vs untreated cells. […]

Another test has as its system H1975 cells. The experiment in a line: Crystal violet cell viability / antiproliferative assay, H1975. Type of test: cell-based, human. The protocol:
as §1, §2

Another test concerns A549 cells. In words: Crystal violet cell viability / antiproliferative assay, A549. Type of test: cell-based, human. As for the experimental part:
as §1, §2

With `CC/C(=C(\c1ccccc1)c1ccc(OCCN(C)C)cc1)c1ccccc1` [tamoxifen, reference compound], the IC50 with BEAS-2B cells was 9 ± 0.2 µM; in the test on H1975 cells (NCI-H1975, human NSCLC H1975 cells, treatment time 72 h), 37 ± 5 µM; with A549 cells (human NSCLC A549 cells, treatment time 72 h), 72 ± 9 µM. In addition, in the test with H1975 cells (IC50(BEAS-2B)/IC50(H1975), 72 h), the “Selectivity index SInd, H1975” value amounted to 0.2. Moreover, the “Selectivity index SInd, A549” value with A549 cells (IC50(BEAS-2B)/IC50(A549), 72 h) is on record as 0.1.
